Results are given in words; binding and its absence hold for the method and conditions named. Some entries that bind do so weakly or less than the wild type. Where a sequence is shown, tags or fusion partners need not be part of it.

Test [1] has as its target T1, recombinant Rae-1e-Fc (R&D Systems) (mouse) (UniProt Q9CZQ6).
T1 sequence (looked up): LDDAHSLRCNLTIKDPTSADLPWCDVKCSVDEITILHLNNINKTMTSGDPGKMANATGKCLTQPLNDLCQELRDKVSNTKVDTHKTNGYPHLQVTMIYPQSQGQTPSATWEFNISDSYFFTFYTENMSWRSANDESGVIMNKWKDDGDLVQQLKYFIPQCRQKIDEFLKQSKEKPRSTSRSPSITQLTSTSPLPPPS
The test is described as follows: ELISA, Rae1e/Fc coated. A general note: In an ELISA, binding on a coated surface is turned into a signal by an enzyme label.

Test [2] deals with T1, recombinant Rae-1e-Fc (R&D Systems) (mouse). The test is described as follows: ELISA, 50 ng Rae-1e-Fc coated, 250 ng NKG2D-Fc, anti-mouse IgG2a-HRP detection.

B1: murine NKG2D-Fc fusion protein (IgG2a-IEGR-NKG2D construct) (Fc fusion, mouse, not shown: a dimerising Fc or GST)
chain: IEGRETFQPVLCNKEVPVSSREGYCGPCPNNWICHRNNCYQFFNEEKTWNQSQASCLSQNSSLLKIYSKEEQDFLKLVKSYHWMGLVQIPANGSWQWEDGSSLSYNQLTLVEIPKGSCAVYGSSFKAYTEDCANLNTYICMKRAV
On to B1, for which the binding result in test [1] and in test [2] was “binds” each time.

B2: NKG2D-IgG2a construct (Fc fusion, UniProt O54709 90-232, looked up, not shown: a dimerising Fc or GST)
chain: FKETFQPVLCNKEVPVSSREGYCGPCPNNWICHRNNCYQFFNEEKTWNQSQASCLSQNSSLLKIYSKEEQDFLKLVKSYHWMGLVQIPANGSWQWEDGSSLSYNQLTLVEIPKGSCAVYGSSFKAYTEDCANLNTYICMKRAV
For B2, the binding result in test [1] is given as “binds”.

B3: IgG2a-19AA-NKG2D construct (Fc fusion, UniProt O54709 90-232, looked up, not shown: a dimerising Fc or GST; small tags and cut ends)
chain: FKETFQPVLCNKEVPVSSREGYCGPCPNNWICHRNNCYQFFNEEKTWNQSQASCLSQNSSLLKIYSKEEQDFLKLVKSYHWMGLVQIPANGSWQWEDGSSLSYNQLTLVEIPKGSCAVYGSSFKAYTEDCANLNTYICMKRAV
In the case of B3, the binding entry in test [1] is “binds”.
